Results published in PubChem BioAssay AID493014 (National Center for Advancing Translational Sciences (NCATS), 2011).
Out of some 340,000 compounds screened, about 170 (0.05%) were called active. Inconclusive results, whose numbers are uncertain, are shown with a selection of clear calls. Calls come from the whole dose curve; as a rule, active = well fitted inhibition curve with a large enough effect in the signal ratio, with a control signal flat (not every such curve was filed as active); inconclusive = small, poorly fitted or top-dose-only effect, or effect the other way, or a change in a side signal; inactive = flat fitted curve, though single readings scatter; the % refers to the signal ratio. Potencies beside an inconclusive call are fits to weak or partial responses and may not hold up.

Assay: qHTS Assay to Find Inhibitors of Chronic Active B-Cell Receptor Signaling;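 for activity change, negative = inhibition: plate controls were basal doxycycline-induced cells for no effect and cells given 10 µM MG132 for full effect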
Conditions: ABC-DLBCL IkBa-CBG/CBR reporter, luminescence ratio (green luciferase fused to IkBa over red control in TMD8 lymphoma cells), 4 h; activity change, negative = inhibition: at 46.1 µM (top of the series)
Outline: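 TMD8 ABC-DLBCL cells carrying doxycycline-inducible green luciferase fused to IkappaBalpha plus unfused red luciferase were exposed to compounds (up to 46 uM) for 4 hrs at 37C. Activity came from the overlap-corrected green/red luminescence ratio.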
Potency is the fitted concentration of half-maximal effect.

SMILES | activity change, negative = inhibition | Potency
CCOC(=O)N/N=C\c1sccc1C | inactive: -15.7% | 
Cc1ccc(NC2=CC(=O)CC(c3ccccc3)C2)cc1 (centres undefined) | inconclusive: 2.22% | 
COc1cc(NCc2ccccc2O)c2ncccc2c1 | inactive: 13.9% | 
N#C/C(=C(/O)COC(=O)Cc1c[nH]c2ccccc12)c1nc2ccccc2[nH]1 | inactive: 0.487% | 
C[C@H]1COC2=C1C(=O)C(=O)c1c2ccc2c1CCCC2(C)C | inactive: 21.2% | 
COc1ccc(/C=C/C(=O)ONC2=NCCCCC2)cc1OC | inconclusive: 2.3% | 
CC(C)CCN1CCC(n2nccc2NC(=O)c2ccc3c(c2)OCO3)CC1 | inactive: -1.52% | 
Cc1sc2ncnc(N3CCC(C(=O)Nc4nc(-c5ccc(F)cc5)cs4)CC3)c2c1C | inconclusive: 10.2% | 
COC(=O)c1sc(-c2ccc(Cl)cc2)cc1N | inconclusive: 0.343% | 
CCOc1ccccc1-c1nc(-c2ccc(NC(=O)Cc3ccc(OC)cc3)cc2)no1 | inactive: 17.5% | 
COc1c(C)cc(C(=O)C2CCCN(C(=O)c3cc(C)n(C)n3)C2)cc1C (centres undefined) | inconclusive: -8.21% | 
CC(=O)C1(C)N(O)C(C)(C)C(c2cccs2)=[N+]1[O-] (centres undefined) | inconclusive: 12.5% | 
CCN1CCN(CCCOc2ccc(-c3ccccc3)cc2)CC1 | inactive: 18.1% | 
O=C(N/N=C/C=C/c1ccccc1[N+](=O)[O-])c1cc(-c2cccnc2)nc2ccccc12 |  | inconclusive: 3.26 µM [falling, full curve, poor fit]
COc1ccccc1OCCOc1ccc(/C=N/n2cnnc2)cc1 | inconclusive: 2.72% | 
COc1ccc(-n2nc3cc(C)c(NC(=O)CC(C)C)cc3n2)cc1 | inactive: -0.245% | 
CC(C)c1cc(C(=O)NC2CCCCC2)no1 |  | inconclusive: 5.8 µM [falling, single point]
CCCCNC(=O)CSc1nc2cc3c(cc2c(=O)n1CCCC(=O)NCCc1ccc(OC)c(OC)c1)OCO3 | inconclusive: 14.5% | 
Cc1ccc(S(=O)(=O)Nc2c(C)nc3nc(C)[nH]n3c2=O)cc1 | inconclusive: -12.2% | 
CN(C(=O)CC1C(=O)NCCN1Cc1c(F)cccc1Cl)C1CCOCC1 (centres undefined) | inactive: -0.617% | 
CCc1ccc2oc(=O)cc(CN3CCN(c4ccc(F)cc4)CC3)c2c1 | inconclusive: -4.94% | 
CCN(CC)S(=O)(=O)c1ccc2[nH]cc(C(=O)NCCc3ccc(OC)c(OC)c3)c(=O)c2c1 | inconclusive: -1.65% | 
O=C(COC(=O)CCC(=O)c1ccc(Cl)cc1)NCc1ccco1 | inconclusive: -22.6% | 
C[N+](C)(C)CC(=O)N1CCN(c2ccc3ccccc3n2)CC1 | inconclusive: 1.06% | 
Cn1c(CCN2CCCCC2)nc2cc(NC(=O)C3CCCCC3)ccc21 | inconclusive: -11.8% | 
COC(=O)c1ccccc1NC(=O)c1ccc(COc2cccc3ccccc23)o1 |  | inconclusive: 11.6 µM [falling, partial curve]
COc1cc(/C=C(\C#N)c2nc3ccccc3[nH]2)ccc1Oc1ccc([N+](=O)[O-])cn1 | inconclusive: 1.42% | 

Among those listed so far, these contain a nitro group on carbon.
SMILES | activity change, negative = inhibition | Potency
O=C(N/N=C/C=C/c1ccccc1[N+](=O)[O-])c1cc(-c2cccnc2)nc2ccccc12 |  | inconclusive: 3.26 µM [falling, full curve, poor fit]
COc1cc(/C=C(\C#N)c2nc3ccccc3[nH]2)ccc1Oc1ccc([N+](=O)[O-])cn1 | inconclusive: 1.42% | 

(listing goes on)

SMILES | activity change, negative = inhibition | Potency
CCN(CC)c1ccc(/C=N/NC(=O)c2cc(C)nc3ccccc23)cc1 | inconclusive: 4.77% | 
CNC(=O)COC(=O)c1cc(-c2ccco2)nc2ccccc12 | inconclusive: -10.8% | 
COc1ccc(S(=O)(=O)N2CCC(C(=O)N(C)Cc3ccc(C)o3)CC2)cc1OC | inconclusive: -2.83% | 
O=S(=O)(c1cccs1)N1CCN(S(=O)(=O)c2cccs2)CC1 | inconclusive: 0.259% | 
CO/N=C/c1c(-c2ccc(Cl)cc2)nc2cc(C)ccn12 | inactive: 0.936% | 
Cc1cccc(C(=O)Nc2ccc(O)cc2C(=O)O)c1 |  | inconclusive: 0.631 µM [falling, partial curve, poor fit]
O=C(CSc1nnc(-c2ccc(S(=O)(=O)N3CCCC3)cc2)o1)NCc1ccccc1 | inactive: 1.24% | 
Cc1cccc(C(=O)NCC(=O)NC(C)CCc2ccccc2)c1 (centres undefined) | inconclusive: -6.33% | 
COc1ccc(C(=O)O/N=C(\N)c2ccccn2)c(OC)c1 | inconclusive: 250% | 
COc1cccc(C(=S)N2CCOCC2)c1OS(=O)(=O)c1ccc(Cl)cc1 | inactive: -2.26% | 
CC(C)(C)/C(Cn1cncn1)=N\OC(=O)Nc1ccc(Cl)cc1 | inactive: 1.41% | 
O=C(COC(=O)C1CC2C=CC1C2)NCc1ccco1 (centres undefined) | inactive: 1.84% | 
Cc1cccc(C(=O)OCC(=O)NCc2cccs2)c1 | inactive: -22.9% | 
C=CC(=O)Nc1ccc(N(C)c2ccnc(Nc3ccc(N4CCN(C)CC4)cc3)n2)cc1 |  | inconclusive: 29.1 µM [falling, single point]
CN(CC(=O)Nc1cccc(F)c1)C(=O)CNC(=O)Cc1cccc2ccccc12 | inconclusive: 3.18% | 
CC(=O)NC(=S)Nc1sc2c(c1C(N)=O)CCC(C)C2 (centres undefined) | inconclusive: 1.47% | 
Cc1cc(=O)oc2cc(OCc3ccc(C(=O)OCC(=O)NC4CCS(=O)(=O)C4)cc3)ccc12 (centres undefined) |  | inconclusive: 10 µM [falling, partial curve]
COC(=O)CNC(=O)CSc1nc(N)cc(=O)[nH]1 | inconclusive: -0.318% | 
Cc1ccc(CNC(=O)Nc2ccc(Cl)cc2)cc1 | inconclusive: 10.8% | 
COc1ccc2c(c1)C=C(CN1CCN(Cc3ccccc3C)C(CCO)C1)CO2 (centres undefined) | inactive: -12.1% | 
CN(C)S(=O)(=O)N1CCC(Oc2ccc(C(=O)NCc3cnn(C)c3)cc2)CC1 | inactive: 3.65% | 
Cc1ccc(NS(=O)(=O)c2ccc(N/N=C/c3ccncc3)c([N+](=O)[O-])c2)c(C)c1 | inconclusive: -0.425% | 
COc1cc(/C=C2\NC(=S)NC2=O)ccc1OCc1cccc(C(=O)O)c1 |  | inconclusive: 35.5 µM [rising, single point]
CC(C(=O)NCc1ccccc1)N(Cc1ccccc1Cl)C(=O)c1snc(C(N)=O)c1N (centres undefined) | inconclusive: 1.7% | 
CCOC(=O)c1sc(NC(=O)/C=C/c2ccc(F)cc2)nc1C |  | inconclusive: 15.8 µM [falling, partial curve, poor fit]
CCc1ccc(C(=O)NNc2ccc(F)cc2F)cc1 | inactive: -1.15% | 
Cc1nn(CC(=O)NCCc2ccccc2)c(C)c1[N+](=O)[O-] |  | inconclusive: 0.146 µM [falling, full curve, poor fit]
